No constants are given. Whether binding was seen depends on the method and setting. In cells and extracts the contact can be indirect. For some assays here: Binding calls can cover weak binding; strength is not graded here. Sequences can lack the tags named with a protein.
How the values were obtained:
[1] = target: GST-tagged NTD-deleted Smad7 (human); experiment: pull-down; GST pull-down (Glutathione 4B, overnight, 4 °C) from RIPA lysates of HEK293T cells co-transfected with GST-Smad7 WT or truncated constructs and Strep-Gadd45β; immunoblot with anti-Strep (the legend of Fig. 5d says Strep pull-down)
[2] = target: GST-tagged Smad7 N-terminal domain (NTD) (human); experiment: as above

B1: Strep-tagged Gadd45β (protein, UniProt O75293 1-160)
chain: MTLEELVACDNAAQKMQTVTAAVEELLVAAQRQDRLTVGVYESAKLMNVDPDSVVLCLLAIDEEEEDDIALQIHFTLIQSFCCDNDINIVRVSGMQRLAQLLGEPAETQGTTEARDLHCLLVTNPHTDAWKSHGLVEVASYCEESRGNNQWVPYISLQER
[1]
  binding: no binding
[2]
  binding: binds

— article PMC6821912
